For at least one compound, name, drawing or mass did not settle the structure.
Test system: 3T3 fibroblast cells
Assay: Phototoxic potential, neutral red viability

C=CCNCC(=O)c1ccc(O)c2c1CC1CC3C(N(C)C)C(O)=C(C(N)=O)C(=O)C3(O)C(O)=C1C2=O (centres unmarked) [BV]
UV Tox50 (UV light 1.6-1.8 mW/cm^2, 50 minutes): * (minimal or no phototoxicity (e.g., greater than about 75 μg/mL)) | Dark Tox50 (dark control plate, 50 minutes): * (minimal or no phototoxicity (e.g., greater than about 75 μg/mL))
